Experimental data from PubChem BioAssay AID901 (National Center for Advancing Translational Sciences (NCATS), 2007).
Several values for one entry are separate records, joined by “and”; a condition that tells them apart may be missing. Identical values can stand only once. The list shows a part of the results. Shown are side measurements of this screen, not its main read-out; they come without a call. The list favours compounds with an active or inconclusive main result. Potencies come from curve fits of mixed quality, noted in brackets.

Experiment: qHTS Assay for Identifying the Cell-Membrane Permeable IMPase Inhibitors
Conditions: CHO-M1 cells, IP1 accumulation, HTRF TR-FRET ratio; measured here: donor channel 620 nm AC50
With `O=S(=O)(c1cccc(-c2nc3ccccc3s2)c1)N1CCCC1` the AC50 was 5.01 µM [rising, single point].
In the case of `COc1nccnc1NS(=O)(=O)c1ccc(N=Cc2c(C)[nH]n(-c3ccc(C)c(C)c3)c2=O)cc1`, the AC50 is reported as 0.0126 µM [falling, full curve, poor fit].
In the case of `COc1ccccc1OCC(=O)O`, the AC50 is reported as 63.1 nM [rising, full curve, poor fit] and 794 nM [falling, full curve].
In the case of `CCOC(=O)COc1ccc(/C=C2/SC(=Nc3ccccc3)N(Cc3cccnc3)C2=O)cc1OC`, the AC50 is reported as 2 µM [falling, partial curve].
For `Cc1cccc(NC(=O)NCc2ccccn2)c1`, the AC50 was 3.98 µM [falling, partial curve, poor fit].
In the case of `CCc1cc2cc(C(=O)N3CCN(Cc4ccccc4)CC3)sc2s1`, the AC50 is reported as 0.0398 µM [rising, full curve, poor fit].
For `Cc1sc(NC(=O)C2c3ccccc3Oc3ccccc32)c(C(=O)OC(C)C)c1C`, the AC50 was 3.16 µM [falling, single point].
For `C=CCNC(=S)Nc1sc2c(c1C(=O)OCC)CCN(C(=O)OCC)C2`, the AC50 was 31.6 µM [rising, single point].
In the case of `O=C(Cn1c(=O)n(Cc2ccco2)c(=O)c2ccccc21)NCC1CCCO1` (configuration not stated), the AC50 is reported as 0.0501 µM [falling, full curve, poor fit].
In the case of `Cc1ccc(-n2nc3cc(C)c(NC(=O)c4cccnc4)cc3n2)cc1`, the AC50 is reported as 31.6 µM [rising, single point].
With `O=C(c1ccc2c(c1)OCO2)n1nnc2ccccc21` the AC50 was 0.01 µM [rising, full curve, poor fit].
With `CCCC(c1nnnn1Cc1ccccc1)N1CCN(c2ccccc2OC)CC1` (configuration not stated) the AC50 was 5.01 µM [rising, single point].
In the case of `O=C(c1cc(-c2ccco2)on1)N1CCc2ccccc2C1`, the AC50 is reported as 0.158 µM [falling, full curve, poor fit].
For `O=C(O)c1ccccc1C(=O)N1CC=C(c2ccccc2)CC1`, the AC50 was 2.51 µM [rising, full curve, poor fit].
In the case of `Cc1ccc(N/C=C(/C#N)c2ccsc2)cc1`, the AC50 is reported as 0.02 µM [falling, full curve, poor fit].
With `O=C(c1ccccc1F)N1CCC(O)(c2cccnc2)CC1` the AC50 was 15.8 µM [falling, partial curve, poor fit].
In the case of `C=CCNC(=O)c1ccc(OC)cc1OC`, the AC50 is reported as 35.5 µM [falling, single point].
In the case of `O=C(Nc1ccc(N2CCOCC2)cc1)C1CCCCC1`, the AC50 is reported as 31.6 µM [falling, single point].
With `CCOc1ccc2nnc(-c3ccc(Br)cc3)n2n1` the AC50 was 31.6 µM [rising, single point].
In the case of `COC(=O)CSc1nnc(CCc2nc3ccccc3[nH]2)n1C`, the AC50 is reported as 1 µM [falling, full curve].
In the case of `C/C(=N\NC(=O)CC1N=C(Cc2ccccc2)NNC1=O)c1ccc(Cl)cc1Cl` (configuration not stated), the AC50 is reported as 6.31 µM [rising, single point].
With `Cc1cc(C)c(S(=O)(=O)N(C)CC(=O)N2CCCCC2)c(C)c1` the AC50 was 12.6 µM [falling, partial curve, poor fit].
With `Cc1ccc(SCCC(=O)NC(C)C)cc1` the AC50 was 0.631 µM [falling, full curve].
With `COc1cccc(NC(=O)CN2CCN(c3nc(-c4cccc(OC)c4)cs3)CC2)c1` the AC50 was 31.6 µM [falling, single point].
In the case of `CCOC(=O)c1c(NC(=O)CN2C(=O)NC3(CCC(CC)CC3)C2=O)sc(C)c1-c1ccc(C)cc1` (configuration not stated), the AC50 is reported as 35.5 µM [rising, single point].
In the case of `COc1ccc2nc(C)cc(SCC(=O)N/N=C/c3cccc4ccccc34)c2c1`, the AC50 is reported as 31.6 µM [falling, single point].
With `CC1(C)CC(=O)C2=C(C1)N(Cc1cccnc1)C(=O)C2(NC(=O)C1CC1)C(F)(F)F` (configuration not stated) the AC50 was 15.8 µM [rising, single point].
With `COc1cccc(N2CCN(Cc3nc(N)nc(N4CCCc5ccccc54)n3)CC2)c1` the AC50 was 0.501 µM [falling, single point].
With `COCCCN(C(C)=O)c1nc(-c2ccc(OC)cc2)cs1` the AC50 was 0.501 µM [rising, full curve, poor fit].
In the case of `CCOC(=O)c1sc(N2C(=O)c3oc4ccc(C)cc4c(=O)c3C2c2ccccc2F)nc1C` (configuration not stated), the AC50 is reported as 5.62 µM [falling, single point].
For `Cc1ccccc1OCC(=O)Nc1cccc(N(C)S(C)(=O)=O)c1`, the AC50 was 35.5 µM [falling, single point].
For `CCOC(=O)N1CCN(c2nc(C)c3c(n2)CC(C)CC3=O)CC1` (configuration not stated), the AC50 was 0.0251 µM [rising, full curve, poor fit].
With `COc1ccc(CNC(=O)C2CSCCS2)cc1` (configuration not stated) the AC50 was 1.26 µM [falling, full curve, poor fit].
In the case of `CCCC(=O)Nc1cc(-c2nc3ncccc3o2)ccc1C`, the AC50 is reported as 0.2 µM [rising, single point].
With `CCOc1ccc2nc(NCCNC(=O)Nc3ccccc3)c(C#N)cc2c1` the AC50 was 0.2 µM [falling, full curve].
With `CN(C)c1nc(NCc2ccccc2)nc(SCC(=O)Nc2ccc(Cl)c(Cl)c2)n1` the AC50 was 5.01 µM [rising, single point].
For `CCOC(=O)c1sc2ncn(/N=C/c3ccccn3)c(=O)c2c1C`, the AC50 was 0.0631 µM [rising, full curve, poor fit].
For `Cc1cccc(C2Nc3ccccc3C(=O)N2CCc2ccccc2)n1` (configuration not stated), the AC50 was 5.01 µM [rising, single point].
With `CCCCNC(=S)NNC(=O)c1csc(CC)c1` the AC50 was 1 µM [falling, full curve].
In the case of `COc1ccc(NC(=O)C(=O)N/N=C/c2cccnc2)c(OC)c1`, the AC50 is reported as 1.58 µM [falling, partial curve, poor fit].
In the case of `O=c1c2ccccc2nc(SCc2ccccc2F)n1C1CCCC1`, the AC50 is reported as 0.178 µM [rising, full curve, poor fit].
For `O=C(CSc1nnc(-c2cnccn2)n1Cc1ccco1)Nc1ccc(Br)cc1`, the AC50 was 35.5 µM [falling, single point].
For `CCOc1ccc(N=C(NC#N)SCC)cc1`, the AC50 was 0.2 µM [falling, full curve].
For `CCOC(=O)CCCNS(=O)(=O)c1c(C)ccc2nsnc12`, the AC50 was 5.01 µM [falling, single point].
In the case of `COC(=O)c1ccccc1NC(=O)Cc1ccccc1OC`, the AC50 is reported as 0.2 µM [rising, single point].
In the case of `Cc1ccc(C(C)NC(=O)c2ccco2)cc1` (configuration not stated), the AC50 is reported as 0.126 µM [falling, single point].
For `CCn1c(C)c(C(C)=O)c(N2CCN(C(=O)c3ccco3)CC2)nc1=S`, the AC50 was 5.62 µM [falling, full curve, poor fit].
In the case of `CCOc1ccccc1NC(=O)c1ccc(S(=O)(=O)N2CCOCC2)cc1`, the AC50 is reported as 0.794 µM [rising, full curve].
In the case of `CCN(CC)C(=O)/C(=C\c1ccc(Br)cc1)NC(=O)c1ccccc1OC`, the AC50 is reported as 10 µM [falling, partial curve].
In the case of `Cc1c(C(=O)Nc2ccncc2)sc2nc(-c3ccc(F)cc3)cn12`, the AC50 is reported as 31.6 µM [rising, single point].
In the case of `CCC(=O)Nc1ccc(NC(=O)c2cccc(OC)c2)nc1`, the AC50 is reported as 0.501 µM [falling, full curve].
With `O=C1c2ccccc2C(=O)N1c1n[nH]c(CCc2ccccc2)n1` the AC50 was 0.158 µM [falling, partial curve, poor fit].
In the case of `CN(C)[C@@H]1CCC[C@@H]1OC(=O)C(c1ccccc1)c1ccccc1`, the AC50 is reported as 0.224 µM [rising, full curve, poor fit].
In the case of `COc1cccc(OCC(O)CO)c1` (configuration not stated), the AC50 is reported as 31.6 µM [falling, single point].
For `COc1cc(SC)ccc1C(=O)NCCCOC(C)C`, the AC50 was 20 µM [rising, single point].
With `Nc1ccc2oc(-c3ccc4nc[nH]c4c3)nc2c1` the AC50 was 0.0158 µM [rising, full curve, poor fit].
For `O=C(Cn1cnc2c(nnn2Cc2ccc(Cl)cc2)c1=O)NC1CCCC1`, the AC50 was 0.316 µM [rising, single point].
In the case of `COC(=O)c1ccccc1NC(=S)N(Cc1ccc2c(c1)OCO2)Cc1cc2cc(C)ccc2[nH]c1=O`, the AC50 is reported as 5.62 µM [rising, full curve].
For `CC1CCN(C(=O)C2CCN(CCCc3ccccc3)CC2)CC1`, the AC50 was 3.16 µM [rising, single point].
In the case of `CC1CCCN(C(=O)C2c3ccccc3C(=O)N3CCc4ccccc4C23)C1` (configuration not stated), the AC50 is reported as 20 µM [rising, partial curve, poor fit].
In the case of `Nn1c(SC/C=C/c2ccccc2)nnc1-c1ccncc1`, the AC50 is reported as 35.5 µM [falling, single point].
In the case of `Cc1nn2c(-c3ccco3)nnc2c2ccccc12`, the AC50 is reported as 1.41 µM [falling, full curve, poor fit].
In the case of `COc1ccccc1N1CCN(C(=O)COc2ccc(C)cc2Br)CC1`, the AC50 is reported as 0.794 µM [rising, full curve, poor fit].
In the case of `C/C(=N\S(=O)(=O)c1ccc(C)cc1)N1CCN(S(=O)(=O)c2ccccc2)C1`, the AC50 is reported as 31.6 µM [falling, single point].
In the case of `CCOc1ccc(C(=O)Nc2cccc(-c3nc4cccnc4o3)c2)cc1Cl`, the AC50 is reported as 31.6 µM [falling, single point].
In the case of `Cc1ccc(S(=O)(=O)Cc2nc3ccccc3c(=O)[nH]2)cc1`, the AC50 is reported as 1.58 µM [falling, full curve, poor fit].
For `CCOc1ccc(NS(=O)(=O)c2ccc(NC(=O)C3CCCO3)cc2)cc1` (configuration not stated), the AC50 was 0.0794 µM [falling, full curve, poor fit].
